The assay addresses T1, ChemerinR (Homo sapiens, UniProt Q99788).
T1 construct: This fragment was subcloned into the pcDNA3 (Invitrogen) vector; expressed in transfected cells; CHO-K1 elsewhere)
T1 sequence (Q99788 3-373): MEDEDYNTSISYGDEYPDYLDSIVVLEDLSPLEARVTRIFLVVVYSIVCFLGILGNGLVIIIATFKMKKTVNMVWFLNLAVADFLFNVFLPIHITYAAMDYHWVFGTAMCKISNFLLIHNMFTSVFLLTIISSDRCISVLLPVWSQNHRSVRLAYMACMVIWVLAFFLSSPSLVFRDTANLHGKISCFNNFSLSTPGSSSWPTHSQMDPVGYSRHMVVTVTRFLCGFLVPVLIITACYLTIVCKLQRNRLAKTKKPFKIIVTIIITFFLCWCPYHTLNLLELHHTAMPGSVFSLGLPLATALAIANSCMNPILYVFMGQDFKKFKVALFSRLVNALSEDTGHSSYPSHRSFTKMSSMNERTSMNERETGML
As to the kind of experiment: Calcium flux - Aequoscreen assay. The assay is classed as cell-based. Here is the method:
ChemerinR expressing clones were transfected to coexpress mithochondrial apoaequorin and Gα16. Cells in mid-log phase, grown in media without antibiotics 18 hours prior to the test, were detached by gentle flushing with PBS-EDTA (5 mM EDTA), recovered by centrifugation and resuspended in “BSA medium” (DMEM/HAM's F12 with HEPES, without phenol red+0.1% BSA). Cells were then counted, centrifuged and resuspended in a 15 ml Falcon tube at a concentration of 1×10^6 cells/ml.
The Falcon tube, wrapped in aluminium foil, was then placed on a vertical rotating wheel and incubated at room temperature (temperature should be maintained below 22° C.) overnight in order to reconstitute active aequorin.
Cells were then diluted 1/10 in “BSA-medium” and incubated as described above for 60 min. Reference ligands were diluted in “BSA-medium” and distributed in a 96-well plate (50 μl/well). For each measurement, 50 μl of cells (i.e. 5 000 cells) were injected into each well of the plate containing the ligands, and the emitted light is recorded (FDSS, Hamamatsu) during 20 seconds following cells injection. Results were expressed as Relative Light Units (RLU).
The intensity of the emitted light was integrated, yielding for each well one value representative of the emitted light.
Background: A change in cytosolic calcium serves as a functional read-out for many receptors and channels.

For the molecule `CC(C)C[C@H](NC(=O)[C@@H](N)Cc1ccc(O)cc1)C(=O)N1CCC[C@H]1C(=O)NCC(=O)N[C@@H](CCC(N)=O)C(=O)N[C@@H](Cc1ccccc1)C(=O)N[C@@H](C)C(=O)N[C@@H](Cc1ccccc1)C(=O)N[C@@H](CO)C(=O)O`, the EC50 (in general, the concentration at which the effect is half-maximal) worked out at 3.23 nM.

For the origin of these results see US8030453B2, “Methods of making an antibody that binds a chemerin polypeptide” (Euroscreen S.A., priority 2001, dated 2011).
